Laboratory results from paper PMC5185470 (Bioorganic & medicinal chemistry letters, 2016).

Protein sequences, listed by entry. Tags and fused reporters are not part of them. Residues count along the entry.
UniProt P06276, 29-602: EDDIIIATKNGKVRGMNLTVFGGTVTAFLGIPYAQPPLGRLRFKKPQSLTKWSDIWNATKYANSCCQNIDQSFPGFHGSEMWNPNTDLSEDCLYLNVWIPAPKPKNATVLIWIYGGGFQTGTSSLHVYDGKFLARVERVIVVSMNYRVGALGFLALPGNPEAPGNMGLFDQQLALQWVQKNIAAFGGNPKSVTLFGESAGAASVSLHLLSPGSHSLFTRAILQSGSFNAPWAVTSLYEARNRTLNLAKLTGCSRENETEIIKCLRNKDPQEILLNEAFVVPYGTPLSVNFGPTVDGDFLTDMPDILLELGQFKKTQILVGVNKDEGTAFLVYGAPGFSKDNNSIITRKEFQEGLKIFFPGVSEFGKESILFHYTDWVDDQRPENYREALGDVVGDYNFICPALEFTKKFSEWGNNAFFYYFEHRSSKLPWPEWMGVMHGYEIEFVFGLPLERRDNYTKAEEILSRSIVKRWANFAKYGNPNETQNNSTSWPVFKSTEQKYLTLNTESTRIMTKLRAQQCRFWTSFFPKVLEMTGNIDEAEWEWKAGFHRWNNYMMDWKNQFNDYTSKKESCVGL

Target: BuChE (Homo sapiens, UniProt P06276)
Assay: biochemical

## CN(C)Cc1ccc(CSCCN2C(=O)c3cccc([N+](=O)[O-])c3C2=O)o1 [Compound 30]
  IC50: > 50 µM
